{"source": "PubChem BioAssay AID652243 (Drosophila RNAi Screening Center, 2013)", "test": "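Knock-downs that decrease or increase androgen receptor reporter signal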 (primary screen)", "cells": "Drosophila S2R+ cells", "knock-down reagent": "long dsRNA against Drosophila genes", "time to read-out": "72 h (48 h, then 24 h hormone)", "challenge": "synthetic androgen R1881 at 10 nM for 24 h", "measurement": "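Firefly light from an androgen-responsive reporter and Renilla control light per well, raw and unnormalised, for each of two replicates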", "scale": "firefly reporter light: higher = more light from androgen-responsive reporter; Renilla control light: higher = more constitutive control signal (cell number, transfection)", "call rule": "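Hit when the log firefly-to-Renilla ratio dropped or increased by a fixed fold versus the mean of GFP or LacZ controls across duplicate plates; lowering cut given as 1.5 and as 3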", "calls": "active = hit: reporter lowered or raised; inactive = no hit", "note": "In all, the deposit lists about 24,000 reagents; this is an unselected part of those that have a named target and a result. In the full data, 246 (1%) were called active. 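Plates not normalised; calls are printed but the firefly/Renilla ratio behind them is not deposited; fold cut for lowering reported inconsistently.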 Raw values vary from plate to plate and are shown uncorrected. Reagent sequences are not shown. The record does not give: the amount of reagent."}
{"Target gene": "CG14212", "PubChem SID": "SID104199360", "firefly reporter light, replicate 1": 1.25e5, "firefly reporter light, replicate 2": 1.04e5, "Renilla control light, replicate 1": 3.61e5, "Renilla control light, replicate 2": 2.79e5, "Outcome": "inactive"}
{"Target gene": "CG14212", "PubChem SID": "SID104205858", "firefly reporter light, replicate 1": 5.05e5, "firefly reporter light, replicate 2": 5.04e5, "Renilla control light, replicate 1": 7.85e5, "Renilla control light, replicate 2": 7.68e5, "Outcome": "inactive"}
{"Target gene": "Ipo9", "PubChem SID": "SID104196605", "firefly reporter light, replicate 1": 1.37e5, "firefly reporter light, replicate 2": 79725, "Renilla control light, replicate 1": 1.81e6, "Renilla control light, replicate 2": 1.71e6, "Outcome": "inactive"}
{"Target gene": "zuc", "PubChem SID": "SID104181952", "firefly reporter light, replicate 1": 6.17e5, "firefly reporter light, replicate 2": 7.27e5, "Renilla control light, replicate 1": 1.85e6, "Renilla control light, replicate 2": 2.35e6, "Outcome": "inactive"}
{"Target gene": "CG6244", "PubChem SID": "SID104190401", "firefly reporter light, replicate 1": 2.88e5, "firefly reporter light, replicate 2": 2.60e5, "Renilla control light, replicate 1": 2.15e6, "Renilla control light, replicate 2": 1.14e6, "Outcome": "inactive"}
{"Target gene": "Nup154", "PubChem SID": "SID104183176", "firefly reporter light, replicate 1": 6.94e5, "firefly reporter light, replicate 2": 7.29e5, "Renilla control light, replicate 1": 2.20e6, "Renilla control light, replicate 2": 2.62e6, "Outcome": "inactive"}
{"Target gene": "Nup154", "PubChem SID": "SID104204940", "firefly reporter light, replicate 1": 2.40e5, "firefly reporter light, replicate 2": 1.95e5, "Renilla control light, replicate 1": 6.06e5, "Renilla control light, replicate 2": 5.90e5, "Outcome": "inactive"}
{"Target gene": "Reg-2", "PubChem SID": "SID104188482", "firefly reporter light, replicate 1": 8.66e5, "firefly reporter light, replicate 2": 1.15e6, "Renilla control light, replicate 1": 9.81e5, "Renilla control light, replicate 2": 1.21e6, "Outcome": "inactive"}
{"Target gene": "Reg-2", "PubChem SID": "SID104205432", "firefly reporter light, replicate 1": 5.47e5, "firefly reporter light, replicate 2": 7.95e5, "Renilla control light, replicate 1": 8.91e5, "Renilla control light, replicate 2": 8.34e5, "Outcome": "inactive"}
{"Target gene": "Theg", "PubChem SID": "SID104195815", "firefly reporter light, replicate 1": 36160, "firefly reporter light, replicate 2": 41929, "Renilla control light, replicate 1": 4.87e5, "Renilla control light, replicate 2": 4.96e5, "Outcome": "inactive"}
{"Target gene": "fwd", "PubChem SID": "SID104188372", "firefly reporter light, replicate 1": 1.02e6, "firefly reporter light, replicate 2": 1.33e6, "Renilla control light, replicate 1": 1.15e6, "Renilla control light, replicate 2": 1.33e6, "Outcome": "inactive"}
{"Target gene": "fwd", "PubChem SID": "SID104205224", "firefly reporter light, replicate 1": 3.40e5, "firefly reporter light, replicate 2": 3.28e5, "Renilla control light, replicate 1": 9.85e5, "Renilla control light, replicate 2": 9.62e5, "Outcome": "inactive"}
{"Target gene": "fwd", "PubChem SID": "SID104214212", "Outcome": "inactive"}
{"Target gene": "fwd", "PubChem SID": "SID104214213", "Outcome": "inactive"}
{"Target gene": "CG14731", "PubChem SID": "SID104194744", "firefly reporter light, replicate 1": 2.39e5, "firefly reporter light, replicate 2": 2.67e5, "Renilla control light, replicate 1": 2.21e6, "Renilla control light, replicate 2": 2.63e6, "Outcome": "inactive"}
{"Target gene": "CG18262", "PubChem SID": "SID104197941", "firefly reporter light, replicate 1": 1.30e5, "firefly reporter light, replicate 2": 1.47e5, "Renilla control light, replicate 1": 1.39e6, "Renilla control light, replicate 2": 2.44e6, "Outcome": "inactive"}
{"Target gene": "CG18262", "PubChem SID": "SID104203093", "firefly reporter light, replicate 1": 9.70e5, "firefly reporter light, replicate 2": 1.07e6, "Renilla control light, replicate 1": 8.98e5, "Renilla control light, replicate 2": 7.19e5, "Outcome": "inactive"}
{"Target gene": "fuss", "PubChem SID": "SID104196992", "firefly reporter light, replicate 1": 2.90e5, "firefly reporter light, replicate 2": 3.47e5, "Renilla control light, replicate 1": 4.68e6, "Renilla control light, replicate 2": 4.09e6, "Outcome": "inactive"}
{"Target gene": "fuss", "PubChem SID": "SID104201193", "firefly reporter light, replicate 1": 1.24e5, "firefly reporter light, replicate 2": 1.07e5, "Renilla control light, replicate 1": 8.76e5, "Renilla control light, replicate 2": 8.42e5, "Outcome": "active"}
{"Target gene": "CG40172 (retired record)", "PubChem SID": "SID104215335", "firefly reporter light, replicate 1": 8.97e5, "firefly reporter light, replicate 2": 6.93e5, "Renilla control light, replicate 1": 1.92e6, "Renilla control light, replicate 2": 1.28e6, "Outcome": "inactive"}
{"Target gene": "CG14515", "PubChem SID": "SID104194659", "firefly reporter light, replicate 1": 1.12e5, "firefly reporter light, replicate 2": 1.16e5, "Renilla control light, replicate 1": 1.93e6, "Renilla control light, replicate 2": 2.54e6, "Outcome": "inactive"}

Look-ups from the entries so far:
For “Outcome”, fuss [SID104201193] shows active
fwd [SID104214212], Outcome → inactive
